The other results are listed elsewhere or left out.
Tests used:
Experiment in all cases: log2 fold change, soluble protein after heating vs DMSO (PISA); higher = thermal stabilisation; K562 cells, 10 uM, 30 min; active = over 0.2 and 3.5 SD of the protein, either way, in both replicates (recomputed)
bafetinib = compound: Cc1ccc(NC(=O)c2ccc(CN3CC[C@H](N(C)C)C3)c(C(F)(F)F)c2)cc1Nc1nccc(-c2cncnc2)n1 [bafetinib]
Procedure, shortened: (§1)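 K562 cells at 2×10^6 cells/mL were exposed to 10 μM compound for 30 min, then aliquots were heated for 3 min across 48°C-58°C, pooled, and extracted in PBS containing 0.5% NP-40 at 4°C. The supernatant after 21,000xg for 90 min was taken as soluble protein and measured by TMTpro 16plex LC-MS/MS with channel sums equalised. Thermal stability is reported relative to control samples, with values from duplicates. Fold changes are given on a log2 scale.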

By UniProt entry, the sequences of proteins in these tests, tags left out. Where a name states a change or a piece, a line headed by the entry shows the natural chain unless it says otherwise.
UniProt P35914: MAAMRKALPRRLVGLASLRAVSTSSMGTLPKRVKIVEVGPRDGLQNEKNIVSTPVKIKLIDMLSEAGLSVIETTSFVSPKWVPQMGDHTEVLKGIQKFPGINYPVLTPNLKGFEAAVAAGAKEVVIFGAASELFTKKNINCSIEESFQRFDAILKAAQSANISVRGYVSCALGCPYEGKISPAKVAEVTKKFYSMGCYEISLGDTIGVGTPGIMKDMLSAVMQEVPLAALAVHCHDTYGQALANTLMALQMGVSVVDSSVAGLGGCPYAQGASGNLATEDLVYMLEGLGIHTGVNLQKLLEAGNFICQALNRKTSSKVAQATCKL
UniProt Q53FT3: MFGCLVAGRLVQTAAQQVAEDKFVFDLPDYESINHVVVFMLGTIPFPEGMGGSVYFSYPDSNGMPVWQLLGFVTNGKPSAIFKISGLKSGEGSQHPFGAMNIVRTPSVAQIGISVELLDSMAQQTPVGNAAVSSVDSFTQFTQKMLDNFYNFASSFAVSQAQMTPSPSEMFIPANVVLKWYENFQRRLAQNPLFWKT
UniProt Q3SXM5: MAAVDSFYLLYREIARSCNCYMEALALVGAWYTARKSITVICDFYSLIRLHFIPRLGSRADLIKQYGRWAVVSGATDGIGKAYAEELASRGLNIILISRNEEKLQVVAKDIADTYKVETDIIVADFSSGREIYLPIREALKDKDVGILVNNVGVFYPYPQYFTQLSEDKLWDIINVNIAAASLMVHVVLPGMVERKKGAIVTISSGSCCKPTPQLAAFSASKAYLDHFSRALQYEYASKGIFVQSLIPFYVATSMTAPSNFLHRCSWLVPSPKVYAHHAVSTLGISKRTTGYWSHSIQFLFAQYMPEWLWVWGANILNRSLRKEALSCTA
UniProt Q9NP66: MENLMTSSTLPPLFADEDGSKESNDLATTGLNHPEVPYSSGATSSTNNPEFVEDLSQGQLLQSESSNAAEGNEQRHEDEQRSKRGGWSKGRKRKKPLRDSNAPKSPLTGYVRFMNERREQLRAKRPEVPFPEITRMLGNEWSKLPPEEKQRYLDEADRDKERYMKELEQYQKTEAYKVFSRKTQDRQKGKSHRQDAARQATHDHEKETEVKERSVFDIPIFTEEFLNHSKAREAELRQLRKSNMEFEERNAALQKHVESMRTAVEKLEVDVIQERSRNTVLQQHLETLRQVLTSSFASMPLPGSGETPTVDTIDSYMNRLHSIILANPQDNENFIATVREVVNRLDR
UniProt O60921: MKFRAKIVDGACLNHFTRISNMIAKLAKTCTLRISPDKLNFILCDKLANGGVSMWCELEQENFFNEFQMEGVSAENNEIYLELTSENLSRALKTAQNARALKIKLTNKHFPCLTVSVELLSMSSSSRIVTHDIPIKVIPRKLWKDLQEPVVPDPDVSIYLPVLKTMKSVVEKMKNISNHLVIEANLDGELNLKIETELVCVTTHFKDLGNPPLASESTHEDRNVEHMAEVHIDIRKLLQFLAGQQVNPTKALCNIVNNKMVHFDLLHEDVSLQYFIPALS
UniProt P55795: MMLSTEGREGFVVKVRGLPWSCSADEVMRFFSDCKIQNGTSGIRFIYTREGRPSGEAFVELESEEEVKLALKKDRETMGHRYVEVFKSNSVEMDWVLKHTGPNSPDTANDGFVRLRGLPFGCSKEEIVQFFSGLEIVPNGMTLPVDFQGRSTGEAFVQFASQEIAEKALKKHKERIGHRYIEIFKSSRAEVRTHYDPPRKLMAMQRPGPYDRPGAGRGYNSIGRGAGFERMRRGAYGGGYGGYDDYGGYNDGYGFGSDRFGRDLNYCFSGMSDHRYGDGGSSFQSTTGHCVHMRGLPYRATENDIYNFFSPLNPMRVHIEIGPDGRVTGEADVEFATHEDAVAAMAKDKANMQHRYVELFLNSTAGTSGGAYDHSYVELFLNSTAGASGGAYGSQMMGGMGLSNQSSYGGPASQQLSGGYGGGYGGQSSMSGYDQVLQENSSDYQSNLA
UniProt Q5T440: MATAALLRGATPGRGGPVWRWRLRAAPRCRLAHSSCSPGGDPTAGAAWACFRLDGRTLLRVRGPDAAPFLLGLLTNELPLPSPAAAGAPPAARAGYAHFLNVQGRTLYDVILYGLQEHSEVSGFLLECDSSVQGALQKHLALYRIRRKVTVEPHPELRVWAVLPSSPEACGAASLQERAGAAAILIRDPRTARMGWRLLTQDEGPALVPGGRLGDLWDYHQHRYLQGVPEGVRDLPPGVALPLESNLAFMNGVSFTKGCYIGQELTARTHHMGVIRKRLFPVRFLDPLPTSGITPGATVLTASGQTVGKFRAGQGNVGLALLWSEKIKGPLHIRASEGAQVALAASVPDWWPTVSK
UniProt Q1KMD3: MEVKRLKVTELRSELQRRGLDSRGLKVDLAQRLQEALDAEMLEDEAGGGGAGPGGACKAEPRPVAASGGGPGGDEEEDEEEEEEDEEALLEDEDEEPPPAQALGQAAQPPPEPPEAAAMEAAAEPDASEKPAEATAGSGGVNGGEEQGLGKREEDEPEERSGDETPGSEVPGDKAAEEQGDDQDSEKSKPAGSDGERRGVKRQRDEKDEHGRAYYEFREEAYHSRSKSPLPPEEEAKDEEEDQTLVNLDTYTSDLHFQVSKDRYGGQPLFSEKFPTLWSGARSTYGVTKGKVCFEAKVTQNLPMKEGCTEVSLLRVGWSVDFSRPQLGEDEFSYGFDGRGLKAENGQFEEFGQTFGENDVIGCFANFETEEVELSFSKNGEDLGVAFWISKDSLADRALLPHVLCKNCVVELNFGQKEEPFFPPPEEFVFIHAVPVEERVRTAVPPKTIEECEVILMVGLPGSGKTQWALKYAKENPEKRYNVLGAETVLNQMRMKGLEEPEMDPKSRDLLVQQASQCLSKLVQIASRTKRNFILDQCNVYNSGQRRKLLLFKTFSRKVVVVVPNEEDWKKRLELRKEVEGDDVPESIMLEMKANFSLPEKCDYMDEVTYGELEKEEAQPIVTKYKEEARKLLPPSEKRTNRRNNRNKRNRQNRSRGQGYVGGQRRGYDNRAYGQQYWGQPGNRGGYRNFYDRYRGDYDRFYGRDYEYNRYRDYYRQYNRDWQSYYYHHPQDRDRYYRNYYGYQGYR
UniProt P23327: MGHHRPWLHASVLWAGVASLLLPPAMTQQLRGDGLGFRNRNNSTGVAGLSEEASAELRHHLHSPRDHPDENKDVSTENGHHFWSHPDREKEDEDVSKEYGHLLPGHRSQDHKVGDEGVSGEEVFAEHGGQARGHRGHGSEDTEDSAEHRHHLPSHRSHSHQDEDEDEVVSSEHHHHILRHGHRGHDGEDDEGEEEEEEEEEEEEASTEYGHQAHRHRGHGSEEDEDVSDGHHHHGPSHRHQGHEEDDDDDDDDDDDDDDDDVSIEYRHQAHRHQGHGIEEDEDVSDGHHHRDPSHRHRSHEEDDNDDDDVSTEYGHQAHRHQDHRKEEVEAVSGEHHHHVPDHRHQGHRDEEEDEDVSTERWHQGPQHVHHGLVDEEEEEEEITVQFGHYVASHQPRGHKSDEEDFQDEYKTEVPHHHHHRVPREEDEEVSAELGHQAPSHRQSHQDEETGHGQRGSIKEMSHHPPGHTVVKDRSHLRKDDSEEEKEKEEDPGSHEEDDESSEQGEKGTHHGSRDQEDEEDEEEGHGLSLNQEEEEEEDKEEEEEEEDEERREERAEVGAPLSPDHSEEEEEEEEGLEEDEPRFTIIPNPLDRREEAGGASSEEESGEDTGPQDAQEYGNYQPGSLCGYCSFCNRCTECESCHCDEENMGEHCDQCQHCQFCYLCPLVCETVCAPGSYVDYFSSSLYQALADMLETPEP
UniProt O00291: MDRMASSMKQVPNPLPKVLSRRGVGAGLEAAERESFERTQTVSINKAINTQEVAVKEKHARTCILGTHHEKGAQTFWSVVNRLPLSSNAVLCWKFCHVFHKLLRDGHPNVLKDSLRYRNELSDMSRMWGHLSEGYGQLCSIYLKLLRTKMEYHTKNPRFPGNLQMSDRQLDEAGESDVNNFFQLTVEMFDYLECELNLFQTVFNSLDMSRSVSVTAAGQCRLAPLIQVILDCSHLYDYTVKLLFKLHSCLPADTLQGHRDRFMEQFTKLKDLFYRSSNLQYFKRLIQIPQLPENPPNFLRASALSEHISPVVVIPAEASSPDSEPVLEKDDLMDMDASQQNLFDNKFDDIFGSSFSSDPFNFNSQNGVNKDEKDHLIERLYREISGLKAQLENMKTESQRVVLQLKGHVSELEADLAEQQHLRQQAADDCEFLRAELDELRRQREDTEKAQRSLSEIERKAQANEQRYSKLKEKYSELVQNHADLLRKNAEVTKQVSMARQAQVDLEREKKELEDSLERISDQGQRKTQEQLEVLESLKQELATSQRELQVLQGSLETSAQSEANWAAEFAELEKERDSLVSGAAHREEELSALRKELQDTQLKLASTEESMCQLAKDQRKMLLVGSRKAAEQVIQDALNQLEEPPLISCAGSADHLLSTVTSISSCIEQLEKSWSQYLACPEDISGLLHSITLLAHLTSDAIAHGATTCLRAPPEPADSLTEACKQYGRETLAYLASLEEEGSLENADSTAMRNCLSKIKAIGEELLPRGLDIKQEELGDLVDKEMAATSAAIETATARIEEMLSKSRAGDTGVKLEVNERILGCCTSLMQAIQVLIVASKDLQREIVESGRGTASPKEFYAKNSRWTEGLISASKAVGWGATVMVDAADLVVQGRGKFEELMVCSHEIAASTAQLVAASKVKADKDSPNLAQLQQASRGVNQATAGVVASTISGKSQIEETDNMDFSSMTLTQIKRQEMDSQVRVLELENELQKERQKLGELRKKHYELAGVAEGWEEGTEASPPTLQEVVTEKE
UniProt Q86YM7: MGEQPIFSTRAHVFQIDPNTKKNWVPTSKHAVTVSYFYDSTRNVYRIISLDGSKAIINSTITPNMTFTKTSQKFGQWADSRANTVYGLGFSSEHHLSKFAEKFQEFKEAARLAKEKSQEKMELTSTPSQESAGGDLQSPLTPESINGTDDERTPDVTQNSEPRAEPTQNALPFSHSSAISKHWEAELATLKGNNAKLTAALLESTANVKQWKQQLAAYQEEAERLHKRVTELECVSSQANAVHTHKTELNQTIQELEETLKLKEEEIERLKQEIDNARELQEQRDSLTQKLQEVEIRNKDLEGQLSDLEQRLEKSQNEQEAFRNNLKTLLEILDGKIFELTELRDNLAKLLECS
UniProt P52789: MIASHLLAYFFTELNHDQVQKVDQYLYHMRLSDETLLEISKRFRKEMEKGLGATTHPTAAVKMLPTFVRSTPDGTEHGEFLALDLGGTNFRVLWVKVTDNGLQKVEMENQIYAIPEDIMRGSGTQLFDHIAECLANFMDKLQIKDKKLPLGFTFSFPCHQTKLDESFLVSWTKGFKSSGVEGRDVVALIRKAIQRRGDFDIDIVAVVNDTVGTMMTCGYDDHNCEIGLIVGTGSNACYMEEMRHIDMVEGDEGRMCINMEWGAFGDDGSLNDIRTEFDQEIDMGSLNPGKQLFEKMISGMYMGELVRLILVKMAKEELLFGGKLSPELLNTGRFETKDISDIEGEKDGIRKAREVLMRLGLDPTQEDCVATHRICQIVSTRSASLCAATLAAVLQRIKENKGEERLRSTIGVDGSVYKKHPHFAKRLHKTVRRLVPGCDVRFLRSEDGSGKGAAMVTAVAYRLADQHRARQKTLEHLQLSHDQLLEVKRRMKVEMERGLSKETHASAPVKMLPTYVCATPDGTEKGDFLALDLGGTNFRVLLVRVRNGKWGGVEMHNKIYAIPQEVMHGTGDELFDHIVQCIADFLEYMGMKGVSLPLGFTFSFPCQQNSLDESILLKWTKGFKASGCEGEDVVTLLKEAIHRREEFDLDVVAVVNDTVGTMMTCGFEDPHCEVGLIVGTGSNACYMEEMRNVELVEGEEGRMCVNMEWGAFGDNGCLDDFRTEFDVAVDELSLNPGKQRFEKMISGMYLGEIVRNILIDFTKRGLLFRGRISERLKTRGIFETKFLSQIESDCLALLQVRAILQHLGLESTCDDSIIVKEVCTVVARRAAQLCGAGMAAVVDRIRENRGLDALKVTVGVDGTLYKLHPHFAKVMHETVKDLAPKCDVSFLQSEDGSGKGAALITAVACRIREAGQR
UniProt Q14773: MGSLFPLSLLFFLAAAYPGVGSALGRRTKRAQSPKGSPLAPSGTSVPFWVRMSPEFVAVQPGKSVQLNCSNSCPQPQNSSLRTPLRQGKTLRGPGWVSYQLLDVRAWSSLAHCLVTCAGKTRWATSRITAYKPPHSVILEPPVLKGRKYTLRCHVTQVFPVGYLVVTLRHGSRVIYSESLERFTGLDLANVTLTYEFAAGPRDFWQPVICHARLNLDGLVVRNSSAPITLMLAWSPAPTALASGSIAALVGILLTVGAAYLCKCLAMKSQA

[1] = compound: Cc1cccc(CC(=O)N2CCc3c2ccc(-c2cn(C)c4ncnc(N)c24)c3F)n1
Procedure, shortened: as §1

nilotinib = compound: Cc1cn(-c2cc(NC(=O)c3ccc(C)c(Nc4nccc(-c5cccnc5)n4)c3)cc(C(F)(F)F)c2)cn1 [nilotinib]
Procedure, shortened: as §1

[2] = compound: Cc1nc(Nc2n[nH]c3c2CN(C(=O)N[C@H](CN(C)C)c2ccccc2)C3(C)C)c2sccc2n1
Procedure, shortened: as §1

dasatinib = compound: Cc1nc(Nc2ncc(C(=O)Nc3c(C)cccc3Cl)s2)cc(N2CCN(CCO)CC2)n1 [dasatinib]
Procedure, shortened: as §1

[3] = compound: Cc1ncc(-c2ccnc(Nc3ccc(S(C)(=O)=O)cc3)n2)n1C(C)C
Procedure, shortened: as §1

[4] = compound: Cn1cc(-c2ccc3c(c2)CCN3C(=O)Cc2cccc(C(F)(F)F)c2)c2c(N)ncnc21
Procedure, shortened: as §1

[5] = compound: Cn1cc(-c2ccc3nnc(C(F)(F)c4ccc5ncccc5c4)n3n2)cn1
Procedure, shortened: as §1

tipifarnib = compound: Cn1cncc1[C@@](N)(c1ccc(Cl)cc1)c1ccc2c(c1)c(-c1cccc(Cl)c1)cc(=O)n2C [tipifarnib]
Procedure, shortened: as §1

mubritinib = compound: FC(F)(F)c1ccc(/C=C/c2nc(COc3ccc(CCCCn4ccnn4)cc3)co2)cc1 [mubritinib]
Procedure, shortened: as §1

Target	log2 fold change (bafetinib)	log2 fold change [1]	log2 fold change (nilotinib)	log2 fold change [2]	log2 fold change (dasatinib)	log2 fold change [3]	log2 fold change [4]	log2 fold change [5]	log2 fold change (tipifarnib)	log2 fold change (mubritinib)
HMGCL (UniProt P35914)	inactive: -0.045	inactive: 0.042	inactive: -0.004	inactive: 0.012	inactive: -0.038	inactive: -0.02	inactive: 0.067	inactive: -0.002	inactive: 0.046	inactive: 0.034
HIKESHI (UniProt Q53FT3)	inactive: -0.003	inactive: 0.02	inactive: -0.062	inactive: 0.018	inactive: 0.079	inactive: 0.009	inactive: 0.043	inactive: 0.065	inactive: -0.043	inactive: 0.025
HSDL1 (UniProt Q3SXM5)	inactive: -0.052	inactive: -0.032	inactive: -0.045	inactive: 0.013	inactive: 0.004	inactive: -0.013	inactive: 0.094	inactive: -0.062	inactive: -0.036	inactive: 0.035
HMG20A (UniProt Q9NP66)	inactive: -0.012	inactive: -0.05	inactive: -0.046	inactive: -0.02	inactive: 0.052	inactive: -0.012	inactive: -0.05	inactive: -0.224	inactive: 0.064	inactive: -0.021
HUS1 (UniProt O60921)	inactive: -0.001	inactive: -0.018	inactive: 0.007	inactive: 0.039	inactive: 0.03	inactive: -0.036	inactive: 0.069	inactive: -0.02	inactive: -0.022	inactive: 0.03
HNRNPH2 (UniProt P55795)	inactive: 0.056	inactive: 0.006	inactive: -0.09	inactive: -0.231	inactive: -0.061	inactive: -0.103	inactive: -0.021	inactive: 0.041	inactive: -0.236	inactive: -0.115
IBA57 (UniProt Q5T440)	inactive: 0.006	inactive: -0.024	inactive: -0.012	inactive: 0.001	inactive: -0.028	inactive: -0.026	inactive: 0.062	inactive: -0.112	inactive: 0.015	inactive: 0.012
HNRNPUL2 (UniProt Q1KMD3)	inactive: 0	inactive: -0.083	inactive: -0.001	inactive: 0.033	inactive: 0.098	inactive: 0.097	inactive: -0.147	inactive: -0.035	inactive: 0.03	inactive: -0.137
HS2ST1 (UniProt Q7LGA3)	inactive: -0.067	inactive: 0.061	inactive: -0.006	inactive: 0.028	inactive: 0.03	inactive: 0.02	inactive: -0.031	inactive: 0.029	inactive: 0.039	inactive: -0.049
HRC (UniProt P23327)	inactive: -0.098	inactive: -0.147	inactive: 0.01	inactive: -0.017	inactive: 0.055	inactive: -0.039	inactive: -0.038	inactive: 0.037	inactive: 0.016	inactive: 0.041
HIP1 (UniProt O00291)	inactive: -0.079	inactive: -0.069	inactive: -0.038	inactive: 0.063	inactive: 0.004	inactive: -0.079	inactive: -0.009	inactive: -0.002	inactive: -0.099	inactive: 0.077
HOMER1 (UniProt Q86YM7)	inactive: -0.016	inactive: -0.002	inactive: -0.02	inactive: 0.046	inactive: -0.054	inactive: -0.008	inactive: 0.003	inactive: 0.117	inactive: -0.031	inactive: 0.089
HK2 (UniProt P52789)	inactive: -0.215	inactive: 0.029	active: -0.967	inactive: -0.194	inactive: -0.106	inactive: -0.03	inactive: 0.022	inactive: 0.01	inactive: -0.01	inactive: 0.046
HIST2H2BF isoform 2 (UniProt Q5QNW6)	inactive: 0.211	inactive: -0.189	inactive: -0.044	inactive: -0.006	inactive: 0.147	inactive: 0.012	inactive: -0.358	inactive: -0.098	inactive: -0.018	inactive: -0.173
ICAM4 (UniProt Q14773)	inactive: 0.002	inactive: 0.116	inactive: 0.012	inactive: 0.027	inactive: -0.05	inactive: -0.018	inactive: 0.012	inactive: 0.013	inactive: 0.053	inactive: -0.034

In a second layout: results already given
Target,log2 fold change (bafetinib),log2 fold change [1],log2 fold change (nilotinib),log2 fold change [2],log2 fold change (dasatinib),log2 fold change [3],log2 fold change [4],log2 fold change [5],log2 fold change (tipifarnib),log2 fold change (mubritinib)
HMGCL (UniProt P35914),inactive: -0.045,inactive: 0.042,inactive: -0.004,inactive: 0.012,inactive: -0.038,inactive: -0.02,inactive: 0.067,inactive: -0.002,inactive: 0.046,inactive: 0.034
HIKESHI (UniProt Q53FT3),inactive: -0.003,inactive: 0.02,inactive: -0.062,inactive: 0.018,inactive: 0.079,inactive: 0.009,inactive: 0.043,inactive: 0.065,inactive: -0.043,inactive: 0.025

— the supplement of paper PMC10849652
